One data set relates to PCP2 sites. Put plainly: [3H]TCP displacement, cerebellum membranes, 2-site model, PCP2. In kind it is binding, rat. As to conditions: relative proportion of PCP2 sites in two-site fit. How it is done:
(§1) The affinity of the compounds for their potential bond site, can be evaluated by quantifying their ability to displace a specific tritiated label of a given site. The bond experiences are carried out by competition between the molecule to be tested and the appropriate radioligand on a membrane preparation rich in sites to be studied. The concentration of the derivative tested which inhibits 50% of the bond of the radioligand to the receptor is called IC50.
(§2) For the experimental conditions and membrane preparation techniques used, reference can be made to the literature (Brain Res., 378, 133-141 (1986); Eur. J. Pharm., 81, 531-542 (1982)).
(§3) For low affinity sites, the monosite treatment used led to incoherent results. The experimental data have therefore been reprocessed using non-linear regression (Marquardt-Levenberg algorithm) with Sigma Plot software (Jandel) according to a model with two noted sites of interaction PCP2 and PCP3. This processing proves to be more suitable than a monosite treatment (Student test: p<0.05) over a set of 3 to 4 experiments for each compound tested. Over all the experiments, the two site populations are found in a relative proportion to 68.0% (±1.5) for the PCP2 sites and 31.2% (±1.5) for the PCP3 sites.
(§4) For the PCP2 and PCP3 sites, the preparation originates from rat cerebella. Not having a specific label, only [^3H]TCP can be used. A more significant concentration of tritiated ligand (2.5 nM versus 1 nM in the cortex) is used to ensure that all the PCP2 and PCP3 sites are occupied.

A further data set relates to PCP3 sites. Put plainly: [3H]TCP displacement, cerebellum membranes, 2-site model, PCP3. As to conditions: relative proportion of PCP3 sites in two-site fit. In kind it is binding, rat. How it is done: as §1, §2, §3, §4

Molecules are shown by their SMILES.

Take `CCNC1(c2cccs2)CCCCC1` [Ex 17, N-ethyl-1-(2-thienyl)-cyclohexylamine]: the “cerebellum 2 sites PCP2 (%)” value with PCP2 sites is reported as 56.6%. The “cerebellum 2 sites PCP3 (%)” value in the data set with PCP3 sites worked out at 44.6%.

As for `c1coc(C2(N3CCCCC3)CCCCC2)c1` [Ex 18, N-[1-(2-furyl)-cyclohexan-1-yl] piperidine], the “cerebellum 2 sites PCP2 (%)” value with PCP2 sites is 66.3%. In addition, in the data set on PCP3 sites, the “cerebellum 2 sites PCP3 (%)” value came to 30.7%.

Regarding `C[C@@H]1CCCN(C2(c3cccs3)CCSCC2)C1` [Ex 4, R-(+)-N-[4-(2-thienyl)-tetrahydro-4H-thiopyran-4-yl]-3-methyl-piperidine], in the data set with PCP2 sites, the “cerebellum 2 sites PCP2 (%)” value is on record as 66.3%. Further, the “cerebellum 2 sites PCP3 (%)” value in the data set with PCP3 sites came to 34.6%.

With `CC1CSCCC1(c1cccs1)N1CCCCC1` (single isomer, unassigned) [Ex 1 (minority), N-[4-(2-thienyl)-3-methyl-tetrahydro-4H-thiopyran-4-yl] piperidine], in the data set with PCP2 sites, the “cerebellum 2 sites PCP2 (%)” value stood at 62.8%. Further, the “cerebellum 2 sites PCP3 (%)” value with PCP3 sites is 34.7%.

As for `Cc1csc(C2(N3CCCCC3)CCSCC2)c1` [Ex 12, N-[4-(4-methyl-thiophen-2-yl)-tetrahydro-4H-thiopyran-4-yl]-piperidine], the “cerebellum 2 sites PCP2 (%)” value with PCP2 sites is listed as 76.4%. Further, the “cerebellum 2 sites PCP3 (%)” value in the data set on PCP3 sites stood at 21.8%.

With `CC1CCCN(C2(c3cccs3)CCCCC2)C1` (single isomer, unassigned) [Ex 22 (+), N-[1-(2-thienyl)-cyclohexan-1-yl]-3-methyl piperidine], the “cerebellum 2 sites PCP2 (%)” value in the data set on PCP2 sites is recorded as 52.5%. In addition, in the data set with PCP3 sites, the “cerebellum 2 sites PCP3 (%)” value is 51.0%.

`CC1CCCN(C2(c3cccs3)CCSCC2)C1` (racemic) [Ex 2, (±)-N-[4-(2-thienyl)-tetrahydro-4H-thiopyran-4-yl]-3-methyl-piperidine]: the “cerebellum 2 sites PCP2 (%)” value in the data set on PCP2 sites turned out to be 69.1%. Moreover, in the data set on PCP3 sites, the “cerebellum 2 sites PCP3 (%)” value came to 31.6%.

In the case of `c1csc(C2(N3CCCCC3)CCCCC2)c1` [TCP, N-(1-(2-thienyl)cyclohexyl)piperidine, reference compound], the “cerebellum 2 sites PCP2 (%)” value in the data set on PCP2 sites came out at 72.6%. Besides, the “cerebellum 2 sites PCP3 (%)” value with PCP3 sites worked out at 29.8%.

In the case of `C[C@@H]1CCCN(C2(c3cc4ccccc4s3)CCSCC2)C1` [Ex 6, R-(+)-N-[4-(2-benzothiophenyl)-tetrahydro-4H-thiopyran-4-yl]-3-methyl-piperidine], the “cerebellum 2 sites PCP2 (%)” value in the data set on PCP2 sites is given as 55.6%. In addition, the “cerebellum 2 sites PCP3 (%)” value with PCP3 sites is 39.4%.

With `c1csc(C2(N3CCCCC3)CCOCC2)c1` [Ex 20, N-[4-(2-thienyl)-tetrahydro-4H-pyran-4-yl] piperidine], the “cerebellum 2 sites PCP2 (%)” value in the data set on PCP2 sites is listed as 80.3%. In addition, the “cerebellum 2 sites PCP3 (%)” value in the data set with PCP3 sites is recorded as 15.5%.

As to `c1csc(C2(N3CCCCC3)CCCSC2)c1` (centres unmarked) [Ex 21, N-[3-(2-thienyl)-tetrahydro-4H-thiopyran-3-yl] piperidine], the “cerebellum 2 sites PCP2 (%)” value with PCP2 sites is listed as 77.8%. Further, in the data set on PCP3 sites, the “cerebellum 2 sites PCP3 (%)” value was 23.4%.

As to `C[C@H]1CCCN(C2(c3cc4ccccc4s3)CCSCC2)C1` [Ex 7, S-(−)-N-[4-(2-benzothiophenyl)-tetrahydro-4H-thiopyran-4-yl]-3-methyl-piperidine], the “cerebellum 2 sites PCP2 (%)” value with PCP2 sites is 57.8%. The “cerebellum 2 sites PCP3 (%)” value in the data set with PCP3 sites was determined as 40.7%.

With `CC1CCCN(C2(c3cccs3)CCCCC2)C1` (racemic) [Ex 22 (±), N-[1-(2-thienyl)-cyclohexan-1-yl]-3-methyl piperidine], in the data set with PCP2 sites, the “cerebellum 2 sites PCP2 (%)” value amounted to 68.5%. The “cerebellum 2 sites PCP3 (%)” value in the data set on PCP3 sites worked out at 33.7%.

Take `CC1CCCN(C2(c3cc4ccccc4s3)CCSCC2)C1` (racemic) [Ex 5, (±)-N-[4-(2-benzothiophenyl)-tetrahydro-4H-thiopyran-4-yl]-3-methyl-piperidine]: the “cerebellum 2 sites PCP2 (%)” value in the data set with PCP2 sites turned out to be 66.2%. In addition, the “cerebellum 2 sites PCP3 (%)” value in the data set on PCP3 sites is listed as 32.2%.

For the compound `c1coc(C2(N3CCCCC3)CCSCC2)c1` [Ex 9, N-[4-(2-furyl)-tetrahydro-4H-thiopyran-4-yl]-piperidine], the “cerebellum 2 sites PCP2 (%)” value in the data set with PCP2 sites stood at 68.3%. In addition, the “cerebellum 2 sites PCP3 (%)” value in the data set with PCP3 sites is on record as 32.3%.

On to `Cc1ccc(C2(N3CCCCC3)CCSCC2)s1` [Ex 11, N-[4-(5-methyl-thiophen-2-yl)-tetrahydro-4H-thiopyran-4-yl]-piperidine], for which the “cerebellum 2 sites PCP2 (%)” value in the data set on PCP2 sites is on record as 83%. Besides, the “cerebellum 2 sites PCP3 (%)” value in the data set with PCP3 sites turned out to be 15.3%.

On to `OCC1CCCN(C2(c3cccs3)CCCCC2)C1` (centres unmarked) [Ex 8, N-[1-(2-thienyl)-cyclohexan-1-yl]-3-hydroxymethyl-piperidine], for which the “cerebellum 2 sites PCP2 (%)” value in the data set on PCP2 sites stood at 69%. For the same compound, the “cerebellum 2 sites PCP3 (%)” value with PCP3 sites is recorded as 31%.

Take `c1csc(C2(N3CCCCC3)CCSCC2)c1` [Ex 19, N-[4-(2-thienyl)-tetrahydro-4H-thiopyran-4-yl] piperidine]: the “cerebellum 2 sites PCP2 (%)” value in the data set with PCP2 sites was found to be 75.2%. Also, the “cerebellum 2 sites PCP3 (%)” value in the data set on PCP3 sites was 25.2%.

`c1ccc2oc(C3(N4CCCCC4)CCSCC3)cc2c1` [Ex 10, N-[4-(2-benzofuryl)-tetrahydro-4H-thiopyran-4-yl]-piperidine]: the “cerebellum 2 sites PCP2 (%)” value in the data set on PCP2 sites amounted to 65.0%. Further, the “cerebellum 2 sites PCP3 (%)” value in the data set on PCP3 sites was determined as 33.4%.

(Values after patent publication US6342511B1, “Phencyclidine derivatives, preparation method and pharmaceutical compositions containing same” (Societe de Conseils de Recherches et d'Applications …, priority 1977, dated 2002).)
